Binding data for four molecules are collected here from publication PMC8325689.

Protein sequences, listed by entry. Tags and fused reporters are not part of them.
UniProt P63208: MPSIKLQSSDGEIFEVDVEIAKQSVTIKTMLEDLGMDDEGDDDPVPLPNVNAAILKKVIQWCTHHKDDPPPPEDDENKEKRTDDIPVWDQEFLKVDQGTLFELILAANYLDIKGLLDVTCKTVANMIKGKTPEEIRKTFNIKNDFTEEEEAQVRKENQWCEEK

No constants are given. Whether binding was seen depends on the method and setting. In cells and extracts the contact can be indirect. Some results given as binding are weak or reduced against the parent protein; the word gives no strength. For some assays here: Where a sequence is shown, tags or fusion partners need not be part of it.

In assay [1] the target is T1, heterogeneous nuclear ribonucleoprotein L (hnRNPL), endogenous (human (endogenous in HEK293T, A2780, OVCAR8)) (UniProt P14866).
T1 sequence: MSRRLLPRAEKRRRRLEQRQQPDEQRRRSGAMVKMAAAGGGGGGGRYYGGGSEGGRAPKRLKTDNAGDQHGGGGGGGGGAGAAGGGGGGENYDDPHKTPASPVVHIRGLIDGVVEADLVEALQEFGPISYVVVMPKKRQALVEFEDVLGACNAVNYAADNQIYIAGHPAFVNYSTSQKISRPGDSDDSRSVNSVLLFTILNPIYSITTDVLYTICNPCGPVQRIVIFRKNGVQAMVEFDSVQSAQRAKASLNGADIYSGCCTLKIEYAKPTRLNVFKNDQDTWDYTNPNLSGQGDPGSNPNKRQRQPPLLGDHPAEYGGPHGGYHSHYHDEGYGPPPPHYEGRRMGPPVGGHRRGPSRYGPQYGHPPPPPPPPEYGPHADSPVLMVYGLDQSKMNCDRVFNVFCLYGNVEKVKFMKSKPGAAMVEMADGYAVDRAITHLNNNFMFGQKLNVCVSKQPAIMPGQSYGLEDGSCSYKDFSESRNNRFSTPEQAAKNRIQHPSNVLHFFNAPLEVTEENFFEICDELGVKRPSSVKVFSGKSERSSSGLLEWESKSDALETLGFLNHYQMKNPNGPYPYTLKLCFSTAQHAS
As to the kind of experiment: co-IP; endogenous hnRNPL immunoprecipitated with anti-hnRNPL antibody from A2780 cell lysate, immunoblot for SKP1 and CUL1.

Assay [2] deals with T2, full-length FLAG-hnRNPL (1-583) (human (gene amplified from HEK293T cells)) (UniProt P14866).
T2 sequence: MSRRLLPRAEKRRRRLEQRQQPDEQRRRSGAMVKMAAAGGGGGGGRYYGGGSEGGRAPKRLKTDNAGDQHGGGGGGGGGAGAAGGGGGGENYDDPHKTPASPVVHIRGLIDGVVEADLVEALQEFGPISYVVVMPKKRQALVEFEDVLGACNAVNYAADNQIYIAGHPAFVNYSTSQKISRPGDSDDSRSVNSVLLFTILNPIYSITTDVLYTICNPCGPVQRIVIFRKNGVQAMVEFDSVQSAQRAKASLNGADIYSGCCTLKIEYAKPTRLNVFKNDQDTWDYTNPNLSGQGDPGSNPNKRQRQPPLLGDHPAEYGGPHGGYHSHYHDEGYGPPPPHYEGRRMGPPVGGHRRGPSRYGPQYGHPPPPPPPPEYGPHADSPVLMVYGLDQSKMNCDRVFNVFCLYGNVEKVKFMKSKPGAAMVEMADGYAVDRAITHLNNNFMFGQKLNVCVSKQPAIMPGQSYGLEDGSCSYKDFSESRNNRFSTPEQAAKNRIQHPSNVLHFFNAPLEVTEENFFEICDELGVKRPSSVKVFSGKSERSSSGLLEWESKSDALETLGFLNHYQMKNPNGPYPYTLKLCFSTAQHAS
In words: co-IP; lysates of HEK293T cells transiently expressing FLAG-hnRNPL (1-583) or its deletion mutants, FLAG M2 beads, blot with anti-FBXO16 for endogenous FBXO16.

In assay [3] the target is T1, heterogeneous nuclear ribonucleoprotein L (hnRNPL), endogenous (human (endogenous in HEK293T, A2780, OVCAR8)). In words: co-IP; endogenous IP with anti-hnRNPL and protein A/G beads overnight at 4 °C from lysates of A2780 and OVCAR8 cells treated with 10 µM MG132 for 4 h, blot with anti-FBXO16.
Assay [4] deals with T3, FLAG-FBXO16 (full-length) (human (gene amplified from HEK293T cells)) (UniProt Q8IX29).
T3 sequence: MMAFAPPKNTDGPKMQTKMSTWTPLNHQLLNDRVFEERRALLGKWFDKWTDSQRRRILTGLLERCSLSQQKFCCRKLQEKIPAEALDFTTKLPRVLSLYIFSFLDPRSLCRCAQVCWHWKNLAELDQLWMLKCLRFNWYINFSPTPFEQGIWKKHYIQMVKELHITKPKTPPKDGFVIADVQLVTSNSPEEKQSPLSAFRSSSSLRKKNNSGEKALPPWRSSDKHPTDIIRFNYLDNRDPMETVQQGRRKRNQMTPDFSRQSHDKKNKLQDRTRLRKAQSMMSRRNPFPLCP
In words: co-IP; lysates of HEK293T cells expressing FLAG-FBXO16 (stable or transient) or its deletion mutants, FLAG M2 beads 4 h at 4 °C, IP buffer (150 mM NaCl, 20 mM Tris-HCl pH 8.0, 0.5 mM EDTA, 0.5% NP-40), eluted with 3xFLAG peptide, blot for endogenous hnRNPL.

The target in assay [5] is T4, GST-FBXO16 (human (gene amplified from HEK293T cells)) (UniProt Q8IX29).
T4 sequence: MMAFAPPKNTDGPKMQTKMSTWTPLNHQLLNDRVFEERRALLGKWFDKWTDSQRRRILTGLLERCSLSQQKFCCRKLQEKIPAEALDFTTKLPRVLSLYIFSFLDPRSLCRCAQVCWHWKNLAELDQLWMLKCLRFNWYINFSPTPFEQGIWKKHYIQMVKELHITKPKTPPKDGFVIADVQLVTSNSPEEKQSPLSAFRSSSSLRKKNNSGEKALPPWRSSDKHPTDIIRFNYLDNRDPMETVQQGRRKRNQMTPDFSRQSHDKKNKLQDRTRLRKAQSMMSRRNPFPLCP
As to the kind of experiment: pull-down; GST-FBXO16 immobilized on GST-Sepharose beads, incubated with lysate of 293T cells transfected with HA-hnRNPL, immunoblot; only the target purified.

For “SKP1, endogenous (from UniProt P63208 1-163)”, the binding result in assay [1] is “binds”.

B1: FBXO16, endogenous (protein, UniProt Q8IX29 1-292)
chain: MMAFAPPKNTDGPKMQTKMSTWTPLNHQLLNDRVFEERRALLGKWFDKWTDSQRRRILTGLLERCSLSQQKFCCRKLQEKIPAEALDFTTKLPRVLSLYIFSFLDPRSLCRCAQVCWHWKNLAELDQLWMLKCLRFNWYINFSPTPFEQGIWKKHYIQMVKELHITKPKTPPKDGFVIADVQLVTSNSPEEKQSPLSAFRSSSSLRKKNNSGEKALPPWRSSDKHPTDIIRFNYLDNRDPMETVQQGRRKRNQMTPDFSRQSHDKKNKLQDRTRLRKAQSMMSRRNPFPLCP
As for B1, the binding entry in assay [2] and in assay [3] was “binds” each time.

B2: heterogeneous nuclear ribonucleoprotein L (hnRNPL), endogenous (protein, UniProt P14866 1-589)
chain: MSRRLLPRAEKRRRRLEQRQQPDEQRRRSGAMVKMAAAGGGGGGGRYYGGGSEGGRAPKRLKTDNAGDQHGGGGGGGGGAGAAGGGGGGENYDDPHKTPASPVVHIRGLIDGVVEADLVEALQEFGPISYVVVMPKKRQALVEFEDVLGACNAVNYAADNQIYIAGHPAFVNYSTSQKISRPGDSDDSRSVNSVLLFTILNPIYSITTDVLYTICNPCGPVQRIVIFRKNGVQAMVEFDSVQSAQRAKASLNGADIYSGCCTLKIEYAKPTRLNVFKNDQDTWDYTNPNLSGQGDPGSNPNKRQRQPPLLGDHPAEYGGPHGGYHSHYHDEGYGPPPPHYEGRRMGPPVGGHRRGPSRYGPQYGHPPPPPPPPEYGPHADSPVLMVYGLDQSKMNCDRVFNVFCLYGNVEKVKFMKSKPGAAMVEMADGYAVDRAITHLNNNFMFGQKLNVCVSKQPAIMPGQSYGLEDGSCSYKDFSESRNNRFSTPEQAAKNRIQHPSNVLHFFNAPLEVTEENFFEICDELGVKRPSSVKVFSGKSERSSSGLLEWESKSDALETLGFLNHYQMKNPNGPYPYTLKLCFSTAQHAS
In the case of B2, the binding entry in assay [4] is listed as “binds”.

B3: HA-hnRNPL (protein, UniProt P14866 1-589)
chain: MSRRLLPRAEKRRRRLEQRQQPDEQRRRSGAMVKMAAAGGGGGGGRYYGGGSEGGRAPKRLKTDNAGDQHGGGGGGGGGAGAAGGGGGGENYDDPHKTPASPVVHIRGLIDGVVEADLVEALQEFGPISYVVVMPKKRQALVEFEDVLGACNAVNYAADNQIYIAGHPAFVNYSTSQKISRPGDSDDSRSVNSVLLFTILNPIYSITTDVLYTICNPCGPVQRIVIFRKNGVQAMVEFDSVQSAQRAKASLNGADIYSGCCTLKIEYAKPTRLNVFKNDQDTWDYTNPNLSGQGDPGSNPNKRQRQPPLLGDHPAEYGGPHGGYHSHYHDEGYGPPPPHYEGRRMGPPVGGHRRGPSRYGPQYGHPPPPPPPPEYGPHADSPVLMVYGLDQSKMNCDRVFNVFCLYGNVEKVKFMKSKPGAAMVEMADGYAVDRAITHLNNNFMFGQKLNVCVSKQPAIMPGQSYGLEDGSCSYKDFSESRNNRFSTPEQAAKNRIQHPSNVLHFFNAPLEVTEENFFEICDELGVKRPSSVKVFSGKSERSSSGLLEWESKSDALETLGFLNHYQMKNPNGPYPYTLKLCFSTAQHAS
For the molecule B3, the binding entry in assay [5] is “binds”.
